{"source": "the supplement of paper PMC8256030", "note": "Values joined by “and” are separate entries in the source; they are usually repeats but may differ in a detail not shown here. Equal values may be shown once. The list shows a part of the results. This data set is noisy: repeats of one test often differ as much as different tests do.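 HEK293T cells were given each compound shortly before transfection with a reporter in which red mCherry is followed by the SARS-CoV-2 frameshift element and then GFP in the −1 frame, so GFP appears only after frameshifting.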", "data": [{"test_system": "HEK293T", "assay": "percent viability (nuclei count) relative to control; higher = more viable cells", "details": "10 µM; 24 h", "values": [{"compound": "C[C@@H](O)[C@H]1C(=O)N2C(C(=O)O)=C(SCCNC=N)C[C@H]12", "note": "[Imipenem]", "percent viability": "125%"}, {"compound": "CCN(CC)CC(=O)OCC(=O)[C@@]1(O)CC[C@H]2[C@@H]3CCC4=CC(=O)C=C[C@]4(C)[C@H]3[C@@H](O)C[C@@]21C", "note": "[prednisolamate]", "percent viability": "278%"}, {"compound": "Oc1ccc(Nc2ccnc3cc(Cl)ccc23)cc1CN1CCCC1", "note": "[amopyroquine]", "percent viability": "565%"}, {"compound": "O=C(O)c1cccnc1", "note": "[nicotinic acid]", "percent viability": "87.6%"}, {"compound": "N/N=c1/ccc(C(N)=O)n[nH]1", "note": "[hydracarbazine]", "percent viability": "153%"}, {"compound": "COc1cc2c(cc1OC)C(=O)C(CC1CCN(Cc3ccccc3)CC1)C2", "note": "(stereo unspecified) [donepezil]", "percent viability": "197%"}, {"compound": "Nc1nc(=O)c2c([nH]1)NCC(CNc1ccc(C(=O)N[C@@H](CCC(=O)O)C(=O)O)cc1)N2C=O", "note": "(stereo partly specified) [Leucovorin]", "percent viability": "218%"}, {"compound": "C=C(c1ccc(C(=O)O)cc1)c1cc2c(cc1C)C(C)(C)CCC2(C)C", "note": "[bexarotene]", "percent viability": "318%"}, {"compound": "CC(NN)c1ccccc1", "note": "(stereo unspecified) [mebanazine]", "percent viability": "125%"}, {"compound": "COc1ccc(C(=O)c2ccccc2)c(O)c1", "note": "[oxybenzone]", "percent viability": "339%"}, {"compound": "Cn1c(=O)cc(N2CCC[C@@H](N)C2)n(Cc2ccccc2C#N)c1=O", "note": "[Alogliptin]", "percent viability": "374%"}, {"compound": "C#C[C@]1(O)CC[C@H]2[C@@H]3CCC4=CC(=O)CC[C@@H]4[C@H]3CC[C@@]21C", "note": "[norethisterone]", "percent viability": "341% and 262%"}, {"compound": "CCCCCCCCCCCCOS(=O)(=O)[O-].[Na+]", "note": "[Sodium lauryl sulfate]", "percent viability": "224%"}, {"compound": "Cc1ccc(=O)n(-c2ccccc2)c1", "note": "[pirfenidone]", "percent viability": "159%"}, {"compound": "CCOC(=O)c1ccc(C#Cc2ccc3c(c2)C(C)(C)CCS3)nc1", "note": "[tazarotene]", "percent viability": "181%"}, {"compound": "Oc1ncnc2[nH]ncc12", "note": "[Allopurinol]", "percent viability": "162%"}, {"compound": "Cc1c(NC(C)C)c(=O)n(-c2ccccc2)n1C", "note": "[ramifenazone]", "percent viability": "44.3%"}, {"compound": "COC(=O)[C@@H]1CC2=CC(=O)CC[C@]2(C)[C@@]23O[C@@H]2C[C@@]2(C)[C@@H](CC[C@@]24CCC(=O)O4)[C@H]13", "note": "[eplerenone]", "percent viability": "244%"}, {"compound": "COCCOC(=O)C1=C(C)NC(C)=C(C(=O)OC(C)C)C1c1cccc([N+](=O)[O-])c1", "note": "(stereo unspecified) [nimodipine]", "percent viability": "150% and 302%"}, {"compound": "CC(=O)Nc1ccc(O)cc1", "note": "[paracetamol]", "percent viability": "128%"}, {"compound": "NCCCC[C@H](N[C@@H](CCc1ccccc1)C(=O)O)C(=O)N1CCC[C@H]1C(=O)O", "note": "[lisinopril]", "percent viability": "146%"}, {"compound": "Cc1ccc(Cl)c(Nc2ccccc2C(=O)O)c1Cl", "note": "[meclofenamic acid]", "percent viability": "187%"}, {"compound": "O=c1cc[nH]c(=O)[nH]1", "percent viability": "337%"}, {"compound": "CC[N+](CC)(CC)CCOc1cccc(OCC[N+](CC)(CC)CC)c1OCC[N+](CC)(CC)CC", "note": "[gallamine triethiodide]", "percent viability": "137% and 157%"}, {"compound": "O=C([O-])[C@H](O)[C@@H](O)[C@H](O)[C@H](O)CO.[Na+]", "percent viability": "106%"}, {"compound": "CO[C@@H]1[C@@H](OC(=O)c2ccc(C)[nH]2)[C@@H](O)[C@@H](Oc2ccc3c(O)c(NC(=O)c4c[nH]c(C(=O)Nc5c(O)c6ccc(O[C@H]7OC(C)(C)[C@H](OC)[C@@H](OC(=O)c8ccc(C)[nH]8)[C@H]7O)c(C)c6oc5=O)c4C)c(=O)oc3c2C)OC1(C)C", "note": "[coumamycin]", "percent viability": "11.1%"}, {"compound": "CC(C)Nc1nc2cc(Cl)c(Cl)cc2n1[C@H]1O[C@@H](CO)[C@H](O)[C@@H]1O", "note": "[maribavir]", "percent viability": "41.6%"}, {"compound": "CC(C)(O/N=C(\\C(=O)N[C@@H]1C(=O)N2C(C(=O)[O-])=C(C[n+]3ccccc3)CS[C@H]12)c1csc(N)n1)C(=O)O", "note": "[Ceftazidime]", "percent viability": "215% and 293%"}, {"compound": "C[C@H](CCC(=O)O)[C@H]1CC[C@H]2[C@@H]3C(=O)C[C@@H]4CC(=O)CC[C@]4(C)[C@H]3CC(=O)[C@]12C", "note": "[dehydrocholic acid]", "percent viability": "90.3%"}, {"compound": "Oc1ccc(CCNCCCCCCNCCc2ccccc2)cc1O", "note": "[dopexamine]", "percent viability": "168%"}, {"compound": "CCOc1ccc2nc(S(N)(=O)=O)sc2c1", "percent viability": "242%"}, {"compound": "COC(=O)Nc1nc2cc(Sc3ccccc3)ccc2[nH]1", "note": "[fenbendazole]", "percent viability": "34.6% and 25%"}, {"compound": "O=C(O)[C@@H]1C[C@H](CP(=O)(O)O)CCN1", "note": "(racemic) [selfotel]", "percent viability": "87%"}, {"compound": "FC(F)(Cl)C(F)(F)Cl", "note": "[cryofluorane]", "percent viability": "167%"}, {"compound": "N#Cc1cc(NC(=O)C(=O)O)c(Cl)c(NC(=O)C(=O)O)c1", "note": "[lodoxamide]", "percent viability": "326%"}, {"compound": "N[C@@H](C(=O)N[C@@H]1C(=O)N2C(C(=O)O)=C(Cl)CS[C@H]12)c1ccccc1", "percent viability": "177%"}]}]}
